The source of these data is PubChem BioAssay AID256 (DTP/NCI, 2004).

The test deals with CD2F1 mice, L1210 leukemia ip, survival T/C. Briefly: NCI In Vivo Anticancer Drug Screen. Data for tumor model L1210 Leukemia (intraperitoneal) in CD2F1 (CDF1) mice. Conditions: higher T/C = longer survival. In short, it runs like this:
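Vehicle-treated tumor-bearing mice served as controls (C) for compound-treated mice (T). Reported figure is T divided by C.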

Where [1] appears, read: T/C endpoint: mean survival time, dose: 200.0 mg/kg/injection, schedule: Q04DX003 (ip), vehicle: saline with Tween-80.
[2] abbreviates: T/C endpoint: mean survival time, dose: 400.0 mg/kg/injection, schedule: Q04DX003 (ip), vehicle: saline with Tween-80.
[3] abbreviates: T/C endpoint: mean survival time, dose: 100.0 mg/kg/injection, schedule: Q01DX009 (ip), vehicle: saline with Tween-80.
The mark [4] stands for this setting: T/C endpoint: mean survival time, dose: 200.0 mg/kg/injection, schedule: Q01DX009 (ip), vehicle: saline with Tween-80.
Setting [5] is: T/C endpoint: mean survival time, dose: 400.0 mg/kg/injection, schedule: Q01DX009 (ip), vehicle: saline with Tween-80.
Setting [6] is: T/C endpoint: median survival time, dose: 200.0 mg/kg/injection, schedule: Q01DX005 (ip), vehicle: saline with Tween-80.
Where [7] appears, read: T/C endpoint: mean survival time, dose: 100.0 mg/kg/injection, schedule: Q04DX003 (ip), vehicle: saline with Tween-80.

The structures appear in SMILES notation. The list shows only some results of the screen, not a fair sample: it is rich in T/C values a quarter to a half above the control, in often repeated tests (any T/C) and in doses without a T/C. Further doses and runs are listed elsewhere. T/C: endpoint of the treated group in % of that of the vehicle group. Some doses have a count of surviving animals in place of a T/C: the source files T/C as zero there, which appears to mark a toxic dose or a test without result, not a measured value. Some survivor counts are full or nearly so, which does not show that the dose was tolerated: the source hardly ever lists a survival T/C far under the control, and the zero likely stands for such cases as well. Survivors were counted at the toxicity check, usually on the fifth day, unless a day is given; later deaths do not show. Schedules are NCI's codes, read here as Q, the interval in days (D) or hours (H), X, the number of doses. Some doses were run more than once; the values are given in rising order. For survival time, the PubChem record calls one and a half times the control and up active, and a quarter to a half above the control has no call in these data; cut-offs in other NCI protocols can differ. Some T/C values carry the count of animals alive at the toxicity check (mostly the fifth day); where none is given, no animal had died by that day.

For the molecule `N=C(N)c1ccc(NC(=O)c2ccc(C(=O)Nc3ccc(C(=N)N)cc3)c(N)c2)cc1`, the T/C (T/C endpoint: median survival time, dose: 50.0 mg/kg/injection, schedule: Q01DX009 (ip), vehicle: saline with Tween-80) was 125 % of control. For the same molecule, the survivor count (T/C endpoint: median survival time, dose: 400.0 mg/kg/injection, schedule: Q01DX009 (ip), vehicle: saline with Tween-80) was 5 of 6.

`CO[C@@]12[C@@H]3N[C@@H]3CN1C1=C(C(=O)C(N(C)c3ccc(O)cc3)=C(C)C1=O)[C@@H]2COC(N)=O`: the T/C by setting is: (T/C endpoint: median survival time, dose: 24.0 mg/kg/injection, schedule: Q01DX001 (ip), vehicle: distilled water + Tween-80) 136 % of control; (T/C endpoint: median survival time, dose: 48.0 mg/kg/injection, schedule: Q01DX001 (ip), vehicle: distilled water + Tween-80) 133 % of control; (T/C endpoint: median survival time, dose: 96.0 mg/kg/injection, schedule: Q01DX001 (ip), vehicle: distilled water + Tween-80) 141 % of control.

Take `NC(=O)c1csc(C2OC(CO)CC2O)n1` (stereo unspecified): the T/C (T/C endpoint: median survival time, dose: 1000.0 mg/kg/injection, schedule: Q01DX005 (ip), vehicle: water) is 128 % of control.

For `O=S(=O)(C(Br)CBr)C(Br)CBr` (stereo unspecified), the survivor count by setting is: under setting [1], 0 of 6; under setting [2], 0 of 6.

Consider `C=C1C(O)C2(O)OCC34C(CC5C(C)=CC(=O)C(O)C5(C)C23)OC(=O)C(OC(=O)C/C=C(\C)CCCCC)C14` (stereo unspecified), for which the T/C was 125 and 132 % of control (T/C endpoint: median survival time, dose: 4.0 mg/kg/injection, schedule: Q01DX005 (ip), vehicle: saline + alcohol); 125 % of control (T/C endpoint: median survival time, dose: 8.0 mg/kg/injection, schedule: Q01DX005 (ip), vehicle: saline + alcohol). Moreover, the survivor count was 0 of 6 and 5 of 6 (T/C endpoint: median survival time, dose: 16.0 mg/kg/injection, schedule: Q01DX005 (ip), vehicle: saline + alcohol); 0 of 6 (T/C endpoint: median survival time, dose: 32.0 mg/kg/injection, schedule: Q01DX005 (ip), vehicle: saline + alcohol); 0 of 6 (T/C endpoint: median survival time, dose: 64.0 mg/kg/injection, schedule: Q01DX005 (ip), vehicle: saline + alcohol).

As to `Cc1ccccc1NC(=O)CC#N`, the survivor count by setting is: under setting [3], 3 of 3; under setting [4], 3 of 3; under setting [5], 2 of 3.

Take `CC(C)(C[NH-])C[NH-].O=C(O)CC(=O)O.[Pt+2]`: the T/C is, setting by setting: (T/C endpoint: median survival time, dose: 6.25 mg/kg/injection, schedule: Q04DX003 (ip), vehicle: distilled water + Tween-80) 149 % of control; (T/C endpoint: median survival time, dose: 6.25 mg/kg/injection, schedule: Q04DX003 (ip), vehicle: water) 132 % of control. The survivor count was 1 of 6 (T/C endpoint: median survival time, dose: 50.0 mg/kg/injection, schedule: Q04DX003 (ip), vehicle: distilled water + Tween-80); 2 of 6 (T/C endpoint: median survival time, dose: 100.0 mg/kg/injection, schedule: Q04DX003 (ip), vehicle: distilled water + Tween-80); 2 of 6 (T/C endpoint: median survival time, dose: 200.0 mg/kg/injection, schedule: Q04DX003 (ip), vehicle: distilled water + Tween-80).

Turning to `FC(F)(F)c1nc2nc(Cl)c(Cl)nc2[nH]1`, the T/C is 137 % of control [5 of 6 alive] (T/C endpoint: mean survival time, dose: 40.0 mg/kg/injection, schedule: Q01DX009 (ip), vehicle: saline with Tween-80); 132 % of control (T/C endpoint: mean survival time, dose: 50.0 mg/kg/injection, schedule: Q01DX009 (ip), vehicle: saline); 132 % of control [5 of 6 alive] (T/C endpoint: median survival time, dose: 100.0 mg/kg/injection, schedule: Q04DX003 (ip), vehicle: saline with Tween-80). Where the note is “T/C endpoint: median survival time, dose: 150.0 mg/kg/injection, schedule: Q04DX003 (ip), vehicle: saline with Tween-80”, the survivor count was 3 of 6.

With `c1ccc([O+](c2ccccc2)c2ccccc2)cc1`, the survivor count (T/C endpoint: mean survival time, dose: 10.0 mg/kg/injection, schedule: Q01DX009 (ip), vehicle: saline with Tween-80) is 1 of 6; the survivor count (T/C endpoint: mean survival time, dose: 20.0 mg/kg/injection, schedule: Q01DX009 (ip), vehicle: saline with Tween-80) was 1 of 6; the survivor count under setting [3] was 0 of 6; the survivor count under setting [4] is reported as 0 of 6; the survivor count under setting [5] is recorded as 0 of 6.

On to `Oc1cc2ccccc2c(-c2c(O)c(O)cc3ccccc23)c1O`, for which the survivor count was 6 of 6 under setting [4]; 0 of 6 and 2 of 6 under setting [5].

For the molecule `NC(CCSCc1ccc(N(CCCl)CCCl)cc1)C(=O)O` (stereo unspecified), the T/C (T/C endpoint: mean survival time, dose: 6.0 mg/kg/injection, schedule: Q01DX009 (ip), vehicle: carboxymethylcellulose (CMC)) was 134 % of control and the T/C (T/C endpoint: mean survival time, dose: 9.0 mg/kg/injection, schedule: Q01DX009 (ip), vehicle: carboxymethylcellulose (CMC)) is 143 % of control.

Regarding `CCN(CC)CC(=O)O[C@]1(CC)C(=O)OCc2c1cc1n(c2=O)Cc2cc3ccccc3nc2-1`, the T/C is 132 and 134 % of control (T/C endpoint: median survival time, dose: 2.0 mg/kg/injection, schedule: Q01DX009 (ip), vehicle: water); 141 % of control (T/C endpoint: median survival time, dose: 3.75 mg/kg/injection, schedule: Q04HX004 (iv), vehicle: dextrose); 125 % of control (T/C endpoint: median survival time, dose: 7.5 mg/kg/injection, schedule: Q04DX002 (ip), vehicle: water); 130 % of control (T/C endpoint: median survival time, dose: 8.0 mg/kg/injection, schedule: Q01DX009 (ip), vehicle: water); 147 % of control (T/C endpoint: median survival time, dose: 15.0 mg/kg/injection, schedule: Q04DX002 (ip), vehicle: water).

On to `C=CCN(N=O)C(=O)OCC`, for which the survivor count (T/C endpoint: mean survival time, dose: 200.0 mg/kg/injection, schedule: Q01DX009 (ip), vehicle: other) is 3 of 6.

For `CN(C)S(=O)(=O)C(C)(C)c1ccccc1`, the survivor count under setting [5] is recorded as 2 of 6.

`N#Cc1c(N)[nH]c2ccc(Sc3ccccc3)cc12`: the T/C reads like this: (T/C endpoint: median survival time, dose: 72.0 mg/kg/injection, schedule: Q01DX005 (ip), vehicle: saline with Tween-80) 125 and 135 % of control; (T/C endpoint: median survival time, dose: 100.0 mg/kg/injection, schedule: Q01DX005 (ip), vehicle: saline with Tween-80) 135 % of control [5 of 6 alive]; under setting [6], 146 % of control [5 of 6 alive]. Further, the survivor count runs as follows: under setting [6], 3 of 6; (T/C endpoint: median survival time, dose: 333.0 mg/kg/injection, schedule: Q01DX005 (ip), vehicle: saline with Tween-80) 0 of 6 and 1 of 6.

For `N#CN=Nc1ccc(Cl)cc1`, the survivor count is, setting by setting: (T/C endpoint: mean survival time, dose: 75.0 mg/kg/injection, schedule: Q01DX001 (ip), vehicle: other) 0 of 6; (T/C endpoint: mean survival time, dose: 150.0 mg/kg/injection, schedule: Q01DX001 (ip), vehicle: other) 0 of 6; (T/C endpoint: mean survival time, dose: 300.0 mg/kg/injection, schedule: Q01DX001 (ip), vehicle: other) 0 of 6.

On to `O=C(CCl)c1cnc2ccccc2n1`, for which the survivor count by setting is: (T/C endpoint: mean survival time, dose: 40.0 mg/kg/injection, schedule: Q01DX001 (ip), vehicle: saline) 1 of 6; (T/C endpoint: mean survival time, dose: 80.0 mg/kg/injection, schedule: Q01DX001 (ip), vehicle: saline) 0 of 6.

As to `CN(C)c1ccc(C(Cc2ccc(Nc3ccccc3)c3ccccc23)=C2C=CC(=[N+](C)C)C=C2)cc1`, the survivor count (T/C endpoint: mean survival time, dose: 50.0 mg/kg/injection, schedule: Q01DX001 (ip), vehicle: saline) was 1 of 3; the survivor count (T/C endpoint: mean survival time, dose: 100.0 mg/kg/injection, schedule: Q01DX001 (ip), vehicle: saline with Tween-80) was 0 of 3; the survivor count (T/C endpoint: mean survival time, dose: 200.0 mg/kg/injection, schedule: Q01DX001 (ip), vehicle: saline with Tween-80) is given as 1 of 3; the survivor count (T/C endpoint: mean survival time, dose: 400.0 mg/kg/injection, schedule: Q01DX001 (ip), vehicle: saline with Tween-80) was 0 of 3.

For `O=C(CC(=O)C(F)(F)F)c1ccccc1.O=C(CC(=O)C(F)(F)F)c1ccccc1.[Cu]`, the survivor count is listed as 3 of 6 under setting [7], 1 of 6 under setting [1] and 0 of 6 under setting [2].

`CCCCCCCCOC(CN)C(Cl)(Cl)Cl` (stereo unspecified): the survivor count reads like this: under setting [7], 0 of 6; under setting [1], 1 of 6; under setting [2], 0 of 6.

`CN1CCCC1CCNc1nc(-c2ccc(C(Cl)(Cl)Cl)cc2)nc(C(Cl)(Cl)Cl)n1` (stereo unspecified): the survivor count runs as follows: under setting [4], 5 of 6; under setting [5], 2 of 6.

On to `CCOc1ccc(NC(=O)C2CCC(C)(C(=O)O)C2(C)C)cc1` (stereo unspecified), for which the survivor count by setting is: under setting [1], 3 of 6; under setting [2], 1 of 6.

Take `CCCCOC(=O)c1cc([N+](=O)[O-])cc([N+](=O)[O-])c1Sc1ncnc2nc[nH]c12`: the survivor count (T/C endpoint: mean survival time, dose: 150.0 mg/kg/injection, schedule: Q01DX005 (ip), vehicle: other) is recorded as 0 of 3.
